Measured values published in article PMC314466.
No constants are given. Whether binding was seen depends on the method and setting. Binding seen in cells or lysates may run through a third protein. Some entries that bind do so weakly or less than the wild type.

Protein sequences, listed by entry. Tags and fused reporters are not part of them.
UniProt P03407: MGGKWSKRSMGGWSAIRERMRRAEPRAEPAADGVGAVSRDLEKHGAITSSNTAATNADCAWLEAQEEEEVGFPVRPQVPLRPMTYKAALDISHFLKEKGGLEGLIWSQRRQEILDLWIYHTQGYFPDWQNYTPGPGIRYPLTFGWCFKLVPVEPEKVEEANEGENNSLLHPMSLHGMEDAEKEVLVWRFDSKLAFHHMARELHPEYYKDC
UniProt Q92608: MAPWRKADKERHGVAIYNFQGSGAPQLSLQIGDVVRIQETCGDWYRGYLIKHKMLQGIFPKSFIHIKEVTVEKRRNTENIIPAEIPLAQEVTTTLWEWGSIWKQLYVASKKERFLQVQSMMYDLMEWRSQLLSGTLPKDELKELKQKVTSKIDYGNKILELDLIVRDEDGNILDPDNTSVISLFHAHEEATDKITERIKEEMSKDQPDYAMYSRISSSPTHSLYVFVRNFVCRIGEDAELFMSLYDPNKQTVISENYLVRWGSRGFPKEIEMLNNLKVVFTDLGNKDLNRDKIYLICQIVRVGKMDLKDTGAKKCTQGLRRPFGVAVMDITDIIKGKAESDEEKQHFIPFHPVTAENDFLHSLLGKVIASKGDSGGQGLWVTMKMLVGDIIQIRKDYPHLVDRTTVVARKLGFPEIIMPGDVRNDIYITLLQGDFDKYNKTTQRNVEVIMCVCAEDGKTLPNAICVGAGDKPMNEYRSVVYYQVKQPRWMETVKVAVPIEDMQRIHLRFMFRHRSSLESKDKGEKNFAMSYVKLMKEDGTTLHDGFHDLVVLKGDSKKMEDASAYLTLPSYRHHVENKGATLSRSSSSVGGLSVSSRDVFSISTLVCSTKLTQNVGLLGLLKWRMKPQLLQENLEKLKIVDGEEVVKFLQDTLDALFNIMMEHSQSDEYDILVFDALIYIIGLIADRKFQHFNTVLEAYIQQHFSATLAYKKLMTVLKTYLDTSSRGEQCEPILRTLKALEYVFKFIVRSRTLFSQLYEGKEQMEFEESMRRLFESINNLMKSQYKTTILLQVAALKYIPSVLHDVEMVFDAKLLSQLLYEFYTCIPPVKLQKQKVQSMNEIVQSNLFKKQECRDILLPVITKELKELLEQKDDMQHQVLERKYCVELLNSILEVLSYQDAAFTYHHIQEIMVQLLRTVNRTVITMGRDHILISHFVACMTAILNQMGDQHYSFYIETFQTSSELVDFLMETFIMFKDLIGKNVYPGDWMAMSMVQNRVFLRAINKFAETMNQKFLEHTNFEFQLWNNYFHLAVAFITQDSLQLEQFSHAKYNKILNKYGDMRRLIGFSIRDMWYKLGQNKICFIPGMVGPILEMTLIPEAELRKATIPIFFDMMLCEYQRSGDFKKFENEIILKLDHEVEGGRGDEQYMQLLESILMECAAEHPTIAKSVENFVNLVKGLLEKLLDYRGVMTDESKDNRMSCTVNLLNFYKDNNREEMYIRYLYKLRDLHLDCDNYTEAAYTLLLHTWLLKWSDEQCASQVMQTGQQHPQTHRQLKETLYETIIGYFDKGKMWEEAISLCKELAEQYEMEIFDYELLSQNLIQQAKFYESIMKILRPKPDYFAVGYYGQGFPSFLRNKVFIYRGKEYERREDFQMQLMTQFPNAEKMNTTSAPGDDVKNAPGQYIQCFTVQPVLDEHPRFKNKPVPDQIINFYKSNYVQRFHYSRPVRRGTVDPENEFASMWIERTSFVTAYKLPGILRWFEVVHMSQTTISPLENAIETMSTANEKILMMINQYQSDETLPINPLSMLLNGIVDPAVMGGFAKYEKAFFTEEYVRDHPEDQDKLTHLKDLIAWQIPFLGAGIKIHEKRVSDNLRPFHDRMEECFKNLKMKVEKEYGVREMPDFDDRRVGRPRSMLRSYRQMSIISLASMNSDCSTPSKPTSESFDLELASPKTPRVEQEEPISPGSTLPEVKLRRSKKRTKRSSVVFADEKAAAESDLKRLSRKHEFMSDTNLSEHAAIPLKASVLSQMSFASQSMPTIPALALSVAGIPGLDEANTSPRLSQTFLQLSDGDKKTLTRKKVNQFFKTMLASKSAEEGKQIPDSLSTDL
UniProt Q92556: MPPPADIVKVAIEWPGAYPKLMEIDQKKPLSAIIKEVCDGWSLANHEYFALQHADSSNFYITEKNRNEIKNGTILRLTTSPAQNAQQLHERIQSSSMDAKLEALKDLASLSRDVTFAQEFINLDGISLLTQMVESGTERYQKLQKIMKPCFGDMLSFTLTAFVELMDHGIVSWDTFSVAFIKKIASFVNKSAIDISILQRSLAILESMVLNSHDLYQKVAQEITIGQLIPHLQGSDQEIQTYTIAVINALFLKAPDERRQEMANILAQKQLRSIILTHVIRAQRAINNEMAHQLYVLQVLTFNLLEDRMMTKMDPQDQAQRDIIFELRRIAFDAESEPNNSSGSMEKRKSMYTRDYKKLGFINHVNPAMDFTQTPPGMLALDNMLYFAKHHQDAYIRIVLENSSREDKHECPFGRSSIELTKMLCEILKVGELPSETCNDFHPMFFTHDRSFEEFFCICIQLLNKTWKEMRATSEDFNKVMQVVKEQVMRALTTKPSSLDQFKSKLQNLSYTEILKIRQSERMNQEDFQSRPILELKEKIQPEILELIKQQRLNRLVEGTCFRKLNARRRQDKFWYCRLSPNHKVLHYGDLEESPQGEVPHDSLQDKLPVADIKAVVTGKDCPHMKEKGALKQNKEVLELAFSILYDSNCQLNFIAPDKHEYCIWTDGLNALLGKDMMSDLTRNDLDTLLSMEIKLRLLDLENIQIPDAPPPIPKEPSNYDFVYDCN

Experiments:
[1] = biological target: hf-tagged Nef of HIV-1 strain SF2 (HIV-1 strain SF2) (UniProt P03407); experiment: co-IP; HEK 293 cells transiently coexpressing epitope-tagged DOCK2, ELMO1, Rac2 or Rac1 and hf-tagged Nef; extracts in LB buffer on anti-FLAG M2 affinity gel overnight, washed with LB and LB with 0.5 M LiCl, FLAG peptide elution; immunoblotting
His-tagged DOCK2 (human) = His-tagged DOCK2 (human) (UniProt Q92608); experiment: pull-down; HEK 293 cells transiently coexpressing His-DOCK2, Myc-ELMO1, Myc-Rac2, with or without NA7-hf; extracts in LB buffer on Ni–NTA agarose, eluted with 250 mM imidazole; immunoblotting

## His-tagged DOCK2 (from UniProt Q92608 1-1830)
[1]
  binding: binds

## Myc-tagged ELMO1 (from UniProt Q92556 1-727)
His-tagged DOCK2 (human)
  binding: binds
[1]
  binding: binds
